Source: PMC12501277, “The deubiquitylase OTUB1 drives gemcitabine resistance in pancreatic cancer by enhancing pyrimidine metabolism through modulating DHODH mRNA stability” (Cell Death & Disease, 2025)
Results are given in words; binding and its absence hold for the method and conditions named. In cells and extracts the contact can be indirect. Some results given as binding are weak or reduced against the parent protein; the word gives no strength.

Amino acid sequences for entries named in this document (tags omitted). A change or cut given only in a name is not applied to a line headed by its entry.
UniProt Q96FW1: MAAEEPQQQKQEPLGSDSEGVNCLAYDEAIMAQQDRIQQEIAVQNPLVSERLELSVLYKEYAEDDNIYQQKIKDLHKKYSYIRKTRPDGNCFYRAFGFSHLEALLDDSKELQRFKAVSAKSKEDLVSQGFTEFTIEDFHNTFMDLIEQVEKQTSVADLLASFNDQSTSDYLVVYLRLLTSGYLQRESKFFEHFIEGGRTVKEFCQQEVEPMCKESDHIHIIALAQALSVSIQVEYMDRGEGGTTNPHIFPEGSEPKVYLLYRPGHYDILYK
UniProt O00571: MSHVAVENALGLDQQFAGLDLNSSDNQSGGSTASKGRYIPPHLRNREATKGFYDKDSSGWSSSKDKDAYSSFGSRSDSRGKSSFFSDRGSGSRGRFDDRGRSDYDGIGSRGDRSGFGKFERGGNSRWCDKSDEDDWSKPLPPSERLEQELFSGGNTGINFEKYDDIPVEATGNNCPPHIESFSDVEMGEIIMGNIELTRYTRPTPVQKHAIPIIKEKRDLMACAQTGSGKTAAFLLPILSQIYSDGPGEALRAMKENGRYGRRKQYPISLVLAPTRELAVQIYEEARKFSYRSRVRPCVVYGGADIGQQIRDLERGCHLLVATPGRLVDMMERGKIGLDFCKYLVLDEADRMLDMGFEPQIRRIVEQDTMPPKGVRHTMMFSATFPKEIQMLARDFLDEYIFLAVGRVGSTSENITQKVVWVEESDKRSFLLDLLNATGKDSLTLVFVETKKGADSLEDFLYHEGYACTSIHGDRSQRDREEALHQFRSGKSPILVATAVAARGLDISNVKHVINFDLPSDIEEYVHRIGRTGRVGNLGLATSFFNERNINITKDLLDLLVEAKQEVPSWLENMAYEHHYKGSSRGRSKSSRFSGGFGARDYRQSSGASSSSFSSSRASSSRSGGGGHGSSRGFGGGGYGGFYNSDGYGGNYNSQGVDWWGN

Columns and labels:
[1] = biological target: OTUB1 (human (endogenous in AsPC-1)) (UniProt Q96FW1); experiment: co-IP; endogenous proteins; AsPC-1 cell lysates with antibody to OTUB1, DDX3X or IgG control and protein A/G-Sepharose beads, western blot
[2] = biological target: Flag-OTUB1 (human) (UniProt Q96FW1); experiment: co-IP; HEK-293T cells transfected with Flag-OTUB1 and HA-DDX3X (FL or indicated mutant construct); total cell lysates, IP-western blot

Row | Substance | binding [1] | binding [2]
1 | DEAD-box helicase 3 X-linked (DDX3X) (from UniProt O00571 1-662) | binds | –
2 | HA-DDX3X (FL) (from UniProt O00571 1-662) | – | binds
3 | HA-DDX3X N-terminal region (aa 1-413) (from UniProt O00571 1-413) (domain or fragment) | – | binds
